Results published in paper PMC9523778, “Understanding Supramolecular Assembly of Supercharged Proteins” (ACS Central Science, 2022).

Biological target: T1, GFP-17
T1 construct: negatively supercharged GFP variant with 11 supercharging mutations, nominal net charge -17 at pH 7.4; also called fully supercharged GFP variant; source: designed and expressed
Experiment: FRET or BRET; dynamic subunit exchange with GFP-17nf at 25 mM NaCl; kd from a kinetic model (sequential unimolecular dissociation of monomers from the protomer) matched to the normalized FRET ratio; 0.05 uM protomer, 4 uM analogue
Details: both partners purified

B1: Ceru+32b (other)
chain: MASKGEKLFKGVVPILVELKGKVNGHKFKVRGEGEGDAKNGKLRLKFICTTGKLPVPWPTLVTTLTWGVQCFSRYPDHMKRHDFFKSAMPEGYVQKRKISFKKDGTYKTRAEVKFEGKTLVNRIKLKGIKFKKDGNILGHKLRYNGISDKVYIKADKKKNGIKAKFKIRHNVKDGSVQLADHYQQNTPIGDGPKLLPRKHYLSTKSVLRKDPNEKRDHMVLLEFVTAAGITKGMDELYK
modifications: matured Cerulean chromophore (TWG); C-terminal LEHHHHHH tag left out
- koff: 0.0025 to 0.004 s⁻¹
